Assay results as given in article PMC3834820.
For at least one entry, the source does not settle the construct or the ends of the probe. For some assays here: At least one verdict was read from the data and is not stated in words by the source.

Protein sequences, listed by entry. Tags and fused reporters are not part of them. Lines headed by an entry give the natural chain unless they say otherwise; changes in a name come on top. Residues count along the entry.
UniProt P0A7G6, 2-353: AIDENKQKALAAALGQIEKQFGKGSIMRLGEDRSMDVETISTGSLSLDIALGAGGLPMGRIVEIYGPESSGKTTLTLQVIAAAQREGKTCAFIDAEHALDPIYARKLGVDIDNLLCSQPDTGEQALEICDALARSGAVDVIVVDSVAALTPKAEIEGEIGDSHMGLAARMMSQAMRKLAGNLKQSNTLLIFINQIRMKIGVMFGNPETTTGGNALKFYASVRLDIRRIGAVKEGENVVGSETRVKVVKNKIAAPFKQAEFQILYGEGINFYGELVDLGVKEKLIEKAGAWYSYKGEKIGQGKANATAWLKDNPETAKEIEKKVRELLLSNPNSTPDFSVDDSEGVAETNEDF
UniProt P0A7C2: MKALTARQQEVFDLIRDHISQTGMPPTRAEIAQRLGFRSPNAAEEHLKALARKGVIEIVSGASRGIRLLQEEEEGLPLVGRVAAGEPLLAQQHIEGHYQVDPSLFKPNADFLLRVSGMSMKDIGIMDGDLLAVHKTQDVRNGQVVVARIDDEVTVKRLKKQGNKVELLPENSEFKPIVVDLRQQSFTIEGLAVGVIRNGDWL

Legend:
RecA = RecA (UniProt P0A7G6); assay: filament formation (used for cross-linking); conditions: 1 mM ATPgS, 2 mM MgCl2; recombinant protein; single-stranded DNA
LexA(M24C) oxidized = LexA(M24C) oxidized (UniProt P0A7C2); assay: SPR; conditions: 150 nM, similar binding to wt, LexA-operator SPR: 20 mM NaH2PO4 pH 7.3, 0.14 M NaCl, 0.005% P20, 25 C, RecA-SKBT25: 20 mM NaH2PO4 pH 7.3, 1 mM ATPgS, 2 mM MgCl2, 0.05 mM Ellman's reagent, on ice, recombinant protein, label: 3' TEG-biotin on S9

Sequence	binding result (RecA)	binding result (LexA(M24C) oxidized)
GCGTGTGTGGTGGTGTGC [SKBT25]	binds	
GTTACTACTCGAGCGATTACTGTTTATTTATACAGTAAA / TTTACTGTATAAATAAACAGTAAT / CGCTCGAGTAGTAAC [tisB operator SPR fragment]		binds
